Laboratory results: patent US20260159546A1, “PHARMACEUTICAL COMPOSITION FOR TREATING SEPSIS INCLUDING DUAL ALARMIN-RECEPTOR-SPECIFIC TARGETING PEPTIDE” (Industry-University Cooperation Foundation Hanyang …, priority 2024, published 2026)
Results are given in words; binding and its absence hold for the method and conditions named. Binding can be weak; no strength is given.

Sequences of proteins named here, by UniProt entry; tags and fusion partners are left off. A change or cut given only in a name is not applied to a line headed by its entry. Residues count along the entry.
UniProt Q62151, residues 23-402: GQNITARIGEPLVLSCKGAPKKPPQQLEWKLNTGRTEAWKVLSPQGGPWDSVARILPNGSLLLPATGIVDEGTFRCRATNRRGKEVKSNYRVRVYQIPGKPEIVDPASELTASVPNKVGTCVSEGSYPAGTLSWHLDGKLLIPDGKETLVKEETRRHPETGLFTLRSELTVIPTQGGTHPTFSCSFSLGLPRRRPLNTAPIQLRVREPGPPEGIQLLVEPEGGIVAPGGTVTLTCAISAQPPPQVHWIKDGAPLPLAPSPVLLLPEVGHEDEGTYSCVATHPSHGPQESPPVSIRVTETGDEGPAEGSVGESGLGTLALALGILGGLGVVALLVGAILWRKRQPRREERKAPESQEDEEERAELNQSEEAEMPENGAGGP
UniProt P63158: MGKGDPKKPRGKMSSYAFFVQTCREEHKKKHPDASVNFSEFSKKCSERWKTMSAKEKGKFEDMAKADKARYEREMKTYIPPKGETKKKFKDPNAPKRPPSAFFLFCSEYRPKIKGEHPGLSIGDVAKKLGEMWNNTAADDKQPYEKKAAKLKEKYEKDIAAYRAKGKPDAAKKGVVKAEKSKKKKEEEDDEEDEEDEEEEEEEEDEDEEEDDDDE

Biological target: RAGE of murine bone marrow-derived macrophages (BMDMs) (mouse) (UniProt Q62151)
Assay: BMDMs incubated with 10 µg/mL rFlag-HMGB1 for 3 h; IP with anti-RAGE, immunoblot (FIG. 1C right)

- binding: binds
Substance: recombinant Flag-HMGB1 (from UniProt P63158) (ligand)
